Data taken from ChEMBL document CHEMBL3988442, “University of Dundee, Small-Polar-MMV Screening Library” (2021).

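Phenotypic screen: M. tuberculosis growth, cholesterol and DPPC medium, 4 days; the read-out is not stated. Concentration: 50 µM. The record gives no direction; compounds that gave an IC50 in retests scored well above the rest, so higher reads as more growth inhibition. Of about 69,000 compounds tested this way, about 370 (0.54%) reached 50% or more in at least one test.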

Values are the deposited “Percent Effect”, in %. The record does not define 0% and 100%; most values in the screen are far below 50% and negative numbers occur (in some assays of this library far below -100). Compounds were drawn at random from those tested, without regard to their results. Two or more numbers in one place are separate tests of the same structure; such repeats can differ widely.

| # | structure | Percent Effect |
|---|---|---|
| 1 | `CC(=O)c1cccc(-c2nc3c([nH]2)CCNC3)c1F` | 6.34% |
| 2 | `COCC1CN(C(=O)Nc2cc(Br)ccc2F)CCO1` (stereo unspecified) | 1.159% |
| 3 | `CC(C)N(CCCNC(=O)C1CCOCC1)S(C)(=O)=O` | -38.81% |
| 4 | `CN(Cc1ccsc1)C(=O)CN1CCCC1Cn1cccn1` (stereo unspecified) | 18.93% |
| 5 | `Cc1ccccc1S(=O)(=O)CCOC(C)C` | 20.66% |
| 6 | `Cc1ccc(N2CCN(C)c3ncccc3C2)nn1.O=C(O)C(F)(F)F` | 13.99% |
| 7 | `Cc1cc(C(=O)NC(C)Cc2ccc(N(C)C)cc2)n(C)n1` (stereo unspecified) | 11.81% |
| 8 | `O=C(NCC(O)COc1ccc(F)cc1)C1(c2ccc(F)cc2)CC1` (stereo unspecified) | -1.516% |
| 9 | `O=S(=O)(CCN1CCOC(Cn2cccn2)C1)c1ccccc1` (stereo unspecified) | -5.806% |
| 10 | `Cc1ccc(CNC(=O)NC2CCCc3c2cnn3CCO)cn1` (stereo unspecified) | -11.77% & -11.9% |
| 11 | `COCCNC(=O)Nc1cccc2c1CCN(S(C)(=O)=O)C2` | -15.78% & -9.189% |
| 12 | `CCN(CC1CCOC1)C(=O)Nc1ccc(OC)nc1` (stereo unspecified) | 1.108% |
| 13 | `Cl.NC(=O)COc1ccc(CNCc2ccc(F)cc2)cc1` | -13.41% |
| 14 | `[H][C@@]12COC[C@]1(C(=O)NCc1cccs1)CN(Cc1cnn(C)c1)C2` | 0.7169% |
| 15 | `O=C1Nc2ccccc2C1C1CCN(C(=O)C2CC2)CC1` (stereo unspecified) | 5.24% |
| 16 | `N#Cc1ccccc1CN(CC(N)=O)C1CCCC1` | -5.634% |
| 17 | `CC(C)N(C)CCC(=O)N1CCCC(c2ccc(C(=O)O)cc2)C1` (stereo unspecified) | -37.46% |
| 18 | `CCn1cc(S(=O)(=O)NCc2ccnc(-n3ccnc3)c2)cn1` | -11.25% |
| 19 | `[H][C@]12CCN(C(=O)NCCc3ccccc3)CC[C@@]1([H])S(=O)(=O)NC2` | 3.169% |
| 20 | `CC(C)c1nccc(CN2CCCC(O)(CN(C)C)CC2)n1` (stereo unspecified) | -9.799% |
| 21 | `CCN(CC)C(=O)Cn1c(-c2ccc(Cl)cc2)nc(C)c(CCO)c1=O` | -1.298% |
| 22 | `N[C@@H](Cc1ccccc1)c1nnc(S(=O)(=O)Cc2ccccc2)o1` | 36.28% |
| 23 | `Cc1cnccc1NCCNC1CCSCC1` | 17.05% |
| 24 | `Cn1ccnc1CN1C[C@@H](CN2CCCC2)[C@@H](CO)C1` | -4.19% |
| 25 | `CSc1ccc(C(=O)N2CCOCC2c2c(C)n[nH]c2C)o1` (stereo unspecified) | -25.31% |
| 26 | `COC(=O)c1cc(OCC2CCC2)cc(C(=O)N[C@H](C)C(N)=O)c1` | -17.71% |
| 27 | `O=C(CC1CC1)N1CCCC2(CCC(=O)N2CC2CC2)CC1` (stereo unspecified) | -11.52% & -5.808% |
| 28 | `COc1cccc(CNc2c(C)nn(C(C)C)c2C)c1.Cl` | -23.96% |
| 29 | `Cc1cccc(C(=O)N2CCCCC2c2nc3cc(F)ccc3[nH]2)n1` (stereo unspecified) | -3.818% |
| 30 | `CCc1noc(C2CCCCN2C(=O)c2cccnc2)n1` (stereo unspecified) | -5.084% |
| 31 | `CC(C)CNC(=O)c1cccc(Oc2ccc3nncn3n2)c1` | -1.292% |
| 32 | `c1ccc(-c2cc(CN3CCCCCC3c3ccco3)on2)nc1` (stereo unspecified) | 25.94% |
| 33 | `N#Cc1ccc(N2CCN(c3cnccn3)CC2)c(C(F)(F)F)c1` | 8.588% |
| 34 | `O=C(Nc1ccccc1-c1cccs1)N1CCN(CC(F)F)CC1` | 3.901% |
| 35 | `COCCCc1nc(-c2ccc(S(=O)(=O)N3CCCC3)cc2)cs1` | 11.48% |
| 36 | `CC(C)Oc1cccc(CN2CCC(C(C)N3CCOCC3)CC2)c1` (stereo unspecified) | -9.527% & 9.528% |
| 37 | `CCc1ccccc1OCCN1CCC(NS(C)(=O)=O)CC1` | -7.292% |
| 38 | `CC(CNC(=O)N1CCN(CC(F)F)CC1)Cc1cccs1` (stereo unspecified) | 17.14% & 3.302% |
| 39 | `Cc1nonc1CN(C)c1nc(-c2cccnc2)nc2c1CCNC2` | -5.334% |
| 40 | `O=C(NCc1ccccn1)c1cncc(C2CCCN2)n1` (stereo unspecified) | -17% |
| 41 | `COc1ccccc1NC(=O)NCCCn1nc2ccccn2c1=O` | -31.05% |
| 42 | `Cc1cc(C(=O)N(CCN(C)C)Cc2ccc(Cl)cc2)no1` | 29.83% |
| 43 | `CCc1ccc(CN2CCN(C)c3ncccc3C2)o1.O=C(O)C(F)(F)F.O=C(O)C(F)(F)F` | -13.72% |
| 44 | `O=C1CSc2ccc(C(=O)N3CCCC(n4cccn4)C3)cc2N1` (stereo unspecified) | -10.42% |
| 45 | `Cc1cn2nc(N3CCCC3C(=O)N3CCN(C)CC3)sc2n1` (stereo unspecified) | -22.78% |
| 46 | `CC1COC2(CCN(C(=O)c3ncoc3C(C)C)CC2)O1` (stereo unspecified) | 45.38% |
| 47 | `CCOC(=O)CNC(=O)NCc1cccn1Cc1cccc(C)c1` | -2.148% |
| 48 | `CCc1nccn1CC(=O)Nc1cccc(C(=O)N(C)C)c1` | -28.81% |
| 49 | `CCNC(=O)C1CCCN(c2ccc3ccc(F)cc3n2)C1` (stereo unspecified) | -6.215% |

Some entries from above, unchanged:

structure,Percent Effect
COc1cccc(CNc2c(C)nn(C(C)C)c2C)c1.Cl,-23.96%
CCN(CC1CCOC1)C(=O)Nc1ccc(OC)nc1 (stereo unspecified),1.108%
COCC1CN(C(=O)Nc2cc(Br)ccc2F)CCO1 (stereo unspecified),1.159%
Cc1nonc1CN(C)c1nc(-c2cccnc2)nc2c1CCNC2,-5.334%